For some assays here: A negative result means that nothing was seen under these conditions. For some assays here: Protein sequences can lack the tags named with them.
Legend:
PI-SceI = PI-SceI (UniProt P17255); assay: enzyme reaction in vitro; conditions: purified recombinant protein, protein details: commercially available
PI-PspI = molecular target: T1, PI-PspI (UniProt Q51334); assay: enzyme reaction in vitro; conditions: purified recombinant protein, protein details: commercially available
T1 sequence (limits assumed): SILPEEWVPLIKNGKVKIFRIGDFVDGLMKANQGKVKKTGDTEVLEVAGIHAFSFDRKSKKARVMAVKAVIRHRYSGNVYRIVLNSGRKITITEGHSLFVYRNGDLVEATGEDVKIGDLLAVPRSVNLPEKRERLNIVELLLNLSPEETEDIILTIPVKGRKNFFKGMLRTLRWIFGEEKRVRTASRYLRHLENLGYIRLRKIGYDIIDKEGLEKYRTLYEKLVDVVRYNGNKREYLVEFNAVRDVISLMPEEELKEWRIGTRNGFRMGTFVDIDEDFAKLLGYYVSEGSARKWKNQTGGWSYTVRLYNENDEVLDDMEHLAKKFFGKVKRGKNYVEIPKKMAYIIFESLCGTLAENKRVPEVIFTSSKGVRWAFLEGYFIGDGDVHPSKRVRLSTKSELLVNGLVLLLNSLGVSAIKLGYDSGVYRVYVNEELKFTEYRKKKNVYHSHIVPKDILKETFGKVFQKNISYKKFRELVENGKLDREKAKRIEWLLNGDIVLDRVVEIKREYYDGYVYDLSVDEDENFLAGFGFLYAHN

Protein sequences, listed by entry. Tags and fused reporters are not part of them. Residues count along the entry.
UniProt P17255, 284-737: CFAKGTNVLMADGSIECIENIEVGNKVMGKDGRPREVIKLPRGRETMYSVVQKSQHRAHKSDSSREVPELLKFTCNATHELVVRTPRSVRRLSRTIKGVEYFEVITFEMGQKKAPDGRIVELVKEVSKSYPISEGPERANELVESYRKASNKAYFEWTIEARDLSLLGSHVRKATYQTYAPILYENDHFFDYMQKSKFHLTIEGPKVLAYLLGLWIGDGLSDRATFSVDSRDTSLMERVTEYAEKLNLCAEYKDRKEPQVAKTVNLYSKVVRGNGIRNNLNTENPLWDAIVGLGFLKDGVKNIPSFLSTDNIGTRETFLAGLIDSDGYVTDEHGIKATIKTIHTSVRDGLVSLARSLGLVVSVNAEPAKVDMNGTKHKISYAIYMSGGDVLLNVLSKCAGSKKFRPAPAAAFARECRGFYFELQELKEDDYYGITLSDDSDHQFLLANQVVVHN

[1] = target cloned in pGEM-T Easy, linearized vector

## ATCTATGTCGGGTGCGGAGAAAGAGGTAATGAAATGGCA (double strand) [PI-SceI wild-type target]
PI-SceI; [1]
  activity on this sequence: active

## ATCTATGTCGGGTGCGGAGGAAGAGGTAATGAAATGGCA (double strand) [PI-SceI missense target]
PI-SceI; cleavage eliminated entirely by single missense mutation, variant of PI-SceI wild-type target
  activity on this sequence: not active

## ATTTACGTTGGATGTGGGGAGAGGGGCAACGAGATAGCG (double strand) [PI-SceI 13-transition target]
PI-SceI; cleaved as efficiently as cognate target, variant of PI-SceI wild-type target
  activity on this sequence: active

## TAGCGAATAGTTACTACGGATACTACGGATA (double strand) [PI-PspI synonymous target]
PI-PspI; efficiently cleaved, variant of PI-PspI wild-type target
  activity on this sequence: active

## TGGCAAACAGCTATTATGGGTATTATGGGTA (double strand) [PI-PspI wild-type target]
PI-PspI; [1]
  activity on this sequence: active

— patent US8566040
